Measured values taken from patent US9447449B2, “Recombinant mycobacteriophages for delivery of nucleic acids of interest into mycobacteria” (Albert Einstein College of Medicine of Yeshiva University, priority 2011, dated 2016).
At least one structure is not confirmed: it was looked up by name or label, or the drawing left a doubt.

Columns and labels:
Type in all cases: cell-based
M. tuberculosis mc^27201 = test system: M. tuberculosis mc^27201
M. tuberculosis mc^27202 = test system: M. tuberculosis mc^27202
M. tuberculosis mc^27203 = test system: M. tuberculosis mc^27203

Question: With `NC[C@H]1O[C@H](O[C@H]2[C@H](O)[C@@H](O[C@H]3O[C@H](CO)[C@@H](O)[C@H](N)[C@H]3O)[C@H](N)C[C@@H]2N)[C@H](O)[C@@H](O)[C@@H]1O` [kanamycin] as the compound, how does the “fluorescence after infection with φ^2GFP10 in presence of antibiotic” value (“fluorescence after infection” for short) (M. tuberculosis mc^27201) read?
Answer: did not change the result of treatment with kanamycin

Question: What about the “fluorescence after infection” value (M. tuberculosis mc^27202) of the same compound?
Answer: not in the presence of kanamycin

Question: And the “fluorescence intensity in presence of antibiotic” value (M. tuberculosis mc^27203)?
Answer: did not change

Question: With `CO[C@H]1/C=C/O[C@@]2(C)Oc3c(C)c(O)c4c(O)c(c(/C=N/N5CCN(C)CC5)c(O)c4c3C2=O)NC(=O)/C(C)=C\C=C\[C@H](C)[C@H](O)[C@@H](C)[C@@H](O)[C@@H](C)[C@H](OC(C)=O)[C@@H]1C` [rifampicin] as the compound, how does the “fluorescence after infection” value (M. tuberculosis mc^27202) read?
Answer: decreased in the presence of rifampicin

Question: What about the “fluorescence intensity in presence of antibiotic” value (M. tuberculosis mc^27203) of the same compound?
Answer: did not change
